PubChem BioAssay AID1259331, Drosophila RNAi Screening Center | 2017
This is a random part of about 3,100 reagents tested. Over the whole deposit, 126 (4.1%) are marked active. 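Calls are per reagent; zinc was so toxic that few knock-downs lowered ATP further, so most hits raise ATP.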 The raw values are shown without normalisation. A number with no mark means an inactive call. Names joined by + are all predicted targets of the reagent. Not given: the amount of reagent.

Assay: 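Knock-downs that alter ATP level after a high zinc chloride dose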 (primary screen)
System: Drosophila S2R+ cells
Reagent: long dsRNA against Drosophila genes
Time to read-out: 5 days (4 days knock-down, then 1 day zinc)
Treatment: zinc chloride at 15 mM final level for 1 day
Detection: 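Total cellular ATP measured by luciferase luminescence as a viability proxy, turned into Z scores from three plate copies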
Reading the numbers: mean Z score: higher = more ATP than other wells, better survival under zinc; ATP luminescence: higher = more ATP, more viable cells
Rule for the call: 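a reagent is called a hit when its Z score is above 1.5 or below -1.5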
Calls: active = hit, ATP up or down; inactive = not a hit

Target gene | dsRNA | mean Z score | ATP luminescence, replicate 1 | ATP luminescence, replicate 2
AQP | DRSC06122 | -0.31 | 61747 | 68641
AQP | DRSC39533 | -0.245 | 50367 | 44514
CG13101 | DRSC02201 | 0.314 | 58608 | 62827
CG13101 | DRSC39475 | 0.153 | 54219 | 55076
Tango5 | DRSC18023 | 0.0825 | 45011 | 45587
Tango5 | DRSC25500 | -0.0725 | 61524 | 59003
gcl | DRSC07623 | -0.392 | 30507 | 27855
gcl | DRSC27995 | -0.196 | 56173 | 57734
CG10081 | DRSC05962 | 0.273 | 84541 | 77045
CG10081 | DRSC24787 | 0.119 | 51938 | 61386
CG31321 | DRSC13028 | 0.127 | 47326 | 43999
CG31321 | DRSC27335 | -0.686 | 43468 | 58643
schlank | DRSC18102 | -0.693 | 53087 | 56071
CG13426 | DRSC06388 | -0.385 | 62930 | 70374
PIG-G | DRSC06823 | -0.341 | 31197 | 27335
amx | DRSC23466 | -0.483 | 50258 | 48594
amx | DRSC39794 | 0.417 | 59166 | 65228
Dh31-R | DRSC06669 | -0.244 | 61935 | 65742
Dh31-R | DRSC23417 | 0.323 | 64799 | 67966
ft | DRSC00819 | -0.0648 | 53277 | 57460
ft | DRSC37550 | -0.17 | 45968 | 45303
CG8837 | DRSC00711 | -0.228 | 42643 | 43228
CG8837 | DRSC29440 | 0.217 | 68240 | 61181
nebu | DRSC09807 | -0.396 | 28063 | 26890
nebu | DRSC09808 | 0.643 | 89738 | 69190
ppk21 | DRSC14466 | 0.313 | 72105 | 70356
ppk21 | DRSC39432 | -0.532 | 43931 | 45628
Atpalpha | DRSC14119 | 0.0748 | 45457 | 49195
Atpalpha | DRSC39134 | 0.362 | 54888 | 47596
put | DRSC17039 | -0.0606 | 44257 | 47343
put | DRSC36611 | -0.571 | 40270 | 39028
put | DRSC36612 | -0.463 | 39885 | 43125
botv | DRSC05949 | -0.577 | 26314 | 25348
botv | DRSC28034 | -0.242 | 56845 | 57185
Inx7 | DRSC18784 | -0.232 | 64726 | 59616
Inx7 | DRSC24113 | -0.566 | 35856 | 58111
CG8850 | DRSC07287 | -0.011 | 79378 | 78846
CG8850 | DRSC25965 | 0.27 | 56671 | 63787
Lrp4 | DRSC20118 | -0.485 | 38753 | 41760
CG1636 + CG15343 | DRSC39902 | -0.533 | 55830 | 44375
CG9270 | DRSC03182 | -0.32 | 28742 | 27045
CG13248 | DRSC11696 | -0.172 | 69841 | 56551
CG13248 | DRSC24446 | -0.9 | 39850 | 53873
Cad99C | DRSC15050 | 0.115 | 63753 | 72245
Cad99C | DRSC16317 | -0.357 | 41760 | 41685
CG32988 | DRSC02692 | -1.05 | 48509 | 45028
CG16723 | DRSC15138 | -0.0807 | 34725 | 58043
CG16723 | DRSC28144 | -1.04 | 53721 | 36634
ihog | DRSC03157 | 0.0208 | 54493 | 58660
ihog | DRSC29581 | 0.214 | 65640 | 63736
Shaw | DRSC00433 | -0.324 | 48732 | 38650
Shaw | DRSC00788 | 0.146 | 61798 | 75295
Shaw | DRSC21368 | 0.131 | 49324 | 48202
CG12490 + CG30265 | DRSC25712 | -0.0936 | 54716 | 61592
CG1275 | DRSC08294 | -0.3 | 25502 | 31759
bdg | DRSC07136 | 0.19 | 34764 | 33027
CG3036 | DRSC00562 | 0.487 | 63029 | 63150
CG3036 | DRSC24856 | -1.09 | 44411 | 44891
CG42685 | DRSC01971 | -0.521 | 44565 | 37125
CG42685 | DRSC39526 | 0.0605 | 51597 | 52795
emei | DRSC10897 | -0.12 | 37999 | 42487
emei | DRSC22684 | 0.826 | 60985 | 57631
Or43a | DRSC07485 | -0.221 | 74198 | 68332
Vha16-4 | DRSC07321 | -0.0727 | 68932 | 72088
Snmp1 | DRSC16168 | 0.221 | 45320 | 57031
robo3 | DRSC00374 | -0.706 | 38197 | 36079
robo3 | DRSC00684 | -0.385 | 39250 | 41171
Or33b | DRSC03387 | -0.345 | 43862 | 39696

An excerpt from above, showing only “ATP luminescence, replicate 2”:
nebu [DRSC09808] = 69190
ppk21 [DRSC14466] = 70356
ppk21 [DRSC39432] = 45628
Atpalpha [DRSC14119] = 49195
Atpalpha [DRSC39134] = 47596
put [DRSC17039] = 47343
put [DRSC36611] = 39028
put [DRSC36612] = 43125
botv [DRSC05949] = 25348
